Measured values taken from the supplement of paper PMC8090911.
Counter-ions that a name gives are not always drawn. This is one part of the list. Many values rest on one well or one pass, so single values are uncertain.

Each compound was assayed on p95-ErbB2-MCF7 (assay: perinuclear lysosome accumulation (PNLA, size of LAMP2 puncta), robust Z-score vs plate median; higher = more perinuclear lysosome accumulation (reversal of invasive lysosome distribution)). Conditions: 5 µM; 24 h.

Row | Structure (SMILES) | perinuclear lysosome accumulation
1 | O=[N+]([O-])O[C@H]1CO[C@H]2[C@@H]1OC[C@H]2O[N+](=O)[O-] [Isosorbide dinitrate] | 0.184
2 | C=C1CC[C@@]2(O)[C@H]3Cc4ccc(O)c5c4[C@@]2(CCN3CC2CC2)[C@H]1O5 [Nalmefene hydrochloride] | -0.0853
3 | O=C(CCCN1CCC2(CC1)C(=O)NCN2c1ccccc1)c1ccc(F)cc1 [Spiperone] | -1.33
4 | CC(N)C(O)c1ccccc1 (stereo not drawn) [Phenylpropanolamine hydrochloride] | -0.691
5 | NCC1(CC(=O)O)CCCCC1 [Gabapentin] | -3.3
6 | O=c1[nH]oc2c1CCNC2 [THIP Hydrochloride] | -1.78
7 | C[C@@H]1C[C@@H]([C@H](O)CC2CC(=O)NC(=O)C2)C(=O)[C@@H](C)C1 [Cycloheximide] | -1.79
8 | Cc1cc(C(C#N)c2ccc(Cl)cc2)c(Cl)cc1NC(=O)c1cc(I)cc(I)c1O (stereo not drawn) [Closantel] | 1.06
9 | CC[C@@H](CO)NC(=O)[C@@H]1C=C2c3cccc4[nH]cc(c34)C[C@H]2N(C)C1 [Methylergometrine maleate] | -0.252
10 | CCC(=O)O[C@H]1CC[C@H]2[C@@H]3CCC4=CC(=O)CC[C@]4(C)[C@H]3CC[C@]12C [Testosterone propionate] | -3.52
11 | COc1ccc(OC)c(C(O)C(C)N)c1 (stereo not drawn) [Methoxamine hydrochloride] | -1.07
12 | O=C(CCCN1CCC(n2c(=O)[nH]c3ccccc32)CC1)c1ccc(F)cc1 [Benperidol] | 0.348
13 | C=CCC1(CC(C)C)C(=O)NC(=O)NC1=O [Butalbital] | -0.713
14 | COc1ccc(C(=O)OC2C[C@H]3CC[C@@H](C2)N3C)cc1OC (stereo partly drawn) [Convolamine hydrochloride] | 0.549
15 | C[C@@H]1CN([C@H]2CC[C@](C#N)(c3ccc(F)cc3)CC2)CC[C@]1(C(=O)O)c1ccccc1 [Levocabastine hydrochloride] | -0.62
16 | C[N+]1(C)CCCC(OC(=O)C(O)(c2ccccc2)c2ccccc2)C1 (stereo not drawn) [Mepenzolate bromide] | -0.397
17 | OC(c1ccccc1)(c1ccccc1)C1CCNCC1 [Azacyclonol] | 1.11
18 | C[C@@]12C(=O)OC(=O)[C@]1(C)[C@H]1CC[C@@H]2O1 [Cantharidin] | -0.254
19 | CCC1(C)CC(=O)NC(=O)C1 [Bemegride] | -2.46
20 | CCCC(C)(COC(N)=O)COC(=O)NC(C)C (stereo not drawn) [Carisoprodol] | -0.914
21 | C=C1C[C@@H]2[C@H](CC[C@]3(C)C(=O)CC[C@@H]23)[C@@]2(C)C=CC(=O)C=C12 [Exemestane] | -1.28
22 | CC(=O)[C@H]1CC[C@H]2[C@@H]3CC[C@H]4C[C@H](O)CC[C@]4(C)[C@H]3C(=O)C[C@]12C [Alfaxalone] | -0.446

Row | Structure (SMILES) | perinuclear lysosome accumulation
23 | CN1C(=O)CCS(=O)(=O)C1c1ccc(Cl)cc1 (stereo not drawn) [Chlormezanone] | -0.0196
24 | O=P1(N(CCCl)CCCl)NCCCO1 (stereo not drawn) [Cyclophosphamide] | -1.92
25 | C[C@]12COC(=O)C[C@@H]1CC[C@@H]1[C@@H]2CC[C@@]2(C)[C@H]1CC[C@]2(C)O [Oxandrolone] | -1.38e-05
26 | C[C@]12CCC(=O)C(O)=C1CC[C@@H]1[C@@H]2CC[C@]2(C)C(=O)CC[C@@H]12 [Formestane] | 1.19
27 | CNC(C)(C)Cc1ccccc1 [Mephentermine hemisulfate] | -0.492
28 | CCC1=C[C@H]2CN3CCc4c([nH]c5ccccc45)[C@](C(=O)OC)(C2)[C@H]13 [Catharanthine] | 0.125
29 | CN1[C@@H]2CC[C@H]1C[C@@H](OC(=O)C(CO)c1ccccc1)C2 (stereo partly drawn) [Atropine sulfate monohydrate] | -0.178
30 | CC(C)C[C@H]1C(=O)N2CCC[C@H]2[C@]2(O)O[C@](NC(=O)[C@@H]3C=C4c5cccc6[nH]c(Br)c(c56)C[C@H]4N(C)C3)(C(C)C)C(=O)N12 [Bromocryptine mesylate] | -0.247
31 | CC(C)(N)Cc1ccccc1 [Phentermine hydrochloride] | 0.38
32 | CN1CCc2cc3c(cc2C1O)OCO3 (stereo not drawn) [Hydrastinine hydrochloride] | 0.814
33 | CCNCC(O)c1cccc(O)c1 (stereo not drawn) [Etilefrine hydrochloride] | -0.0215
34 | COc1ccc(C(CN(C)C)C2(O)CCCCC2)cc1 (stereo not drawn) [Venlafaxine] | 0.436
35 | CN(C)C(=O)Oc1cccc([N+](C)(C)C)c1 [Neostigmine bromide] | -0.415
36 | CNC(=O)Oc1ccc2c(c1)[C@]1(C)CCN(C)[C@@H]1N2C [Eserine sulfate, physostigmine sulfate] | 0.318
37 | C[C@@H]1O[C@@H](O[C@@H]2C=C3CC[C@@H]4[C@H](CC[C@]5(C)[C@@H](c6ccc(=O)oc6)CC[C@]45O)[C@@]3(C)CC2)[C@H](O)[C@H](O)[C@H]1O [Proscillaridin A] | 1.38
38 | C#CCN(C)[C@H](C)Cc1ccccc1 [Selegiline hydrochloride] | -0.819
39 | C[C@]12CC[C@@H](O)C[C@H]1CC[C@@H]1[C@@H]2CC[C@]2(C)C(=O)CC[C@@H]12 [3-alpha-Hydroxy-5-beta-androstan-17-one] | 0.0764
40 | O=c1[nH]c2ccccc2n1C1CCN(CCCC(c2ccc(F)cc2)c2ccc(F)cc2)CC1 [Pimozide] | 0.121
41 | NCCC(O)C(=O)NC1CC(N)C(OC2OC(CN)C(O)[C@H](O)[C@@H]2N)[C@H](OC2O[C@H](CO)[C@@H](O)[C@@H]2O)[C@@H]1O (stereo partly drawn) [Butirosin disulfate salt] | -0.623
42 | CC1OC(OC2/C=C/C=C/C=C/C=C/CC/C=C/C=C/[C@H](C)[C@@H](O)[C@@H](C)[C@H](C)OC(=O)CC(O)CC(O)CC(O)CCC(O)C(O)C[C@]3(O)CC(O)C(C(=O)O)C(C2)O3)C(O)C(N)C1O (stereo partly drawn) [Nystatine] | -0.0219
43 | NCCCNCCSP(=O)(O)O [Amifostine] | -2.54

Some values from the entries so far:
OC(c1ccccc1)(c1ccccc1)C1CCNCC1 [Azacyclonol] – perinuclear lysosome accumulation: 1.11
CC1OC(OC2/C=C/C=C/C=C/C=C/CC/C=C/C=C/[C@H](C)[C@@H](O)[C@@H](C)[C@H](C)OC(=O)CC(O)CC(O)CC(O)CCC(O)C(O)C[C@]3(O)CC(O)C(C(=O)O)C(C2)O3)C(O)C(N)C1O (stereo partly drawn) [Nystatine] – perinuclear lysosome accumulation: -0.0219
COc1ccc(OC)c(C(O)C(C)N)c1 (stereo not drawn) [Methoxamine hydrochloride] – perinuclear lysosome accumulation: -1.07
